“Also recorded” adds a separate entry of the source. At least one compound was matched to its structure with a doubt left.
Key:
Assay in all cases: Colony formation assay, selection of drug-resistant variants
Settings in all cases: selected at 1,000 nM, 21 days
HCV 1a replicon cells = system: HCV 1a replicon cells
[1] = system: HCV 4a NS5A replicon cells
HCV 1b replicon cells = system: HCV 1b replicon cells
[2] = system: HCV 5a NS5A replicon cells

COC(=O)N[C@H](C(=O)N1CCC[C@H]1c1ncc(-c2ccc3cc(-c4ccc5nc([C@@H]6CCCN6C(=O)[C@@H](NC(=O)OC)C(C)C)[nH]c5c4)ccc3c2)[nH]1)C(C)C [ASC16, Ravidasvir]
Substitutions determined by colony formation assay (HCV 1a replicon cells): a small number of colonies did appear | Substitutions determined by colony formation assay [1]: a small number of colonies did appear | Substitutions determined by colony formation assay (HCV 1b replicon cells): failed to produce any drug-resistant colonies; also recorded: No colony | Substitutions determined by colony formation assay [2]: failed to produce any drug-resistant colonies; also recorded: No colony

Source: patent US20210038681A1, “PHARMACEUTICAL COMPOSITION FOR TREATING VIRAL HEPATITIS C” (priority 2018, published 2021)
